Data as given in PubChem BioAssay AID1053208 (Peter MacCallum Cancer Centre, 2014)

Aim: 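Genes whose silencing cuts survival of bone tumour cells only with doxorubicin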 (primary screen)
Cell system: mouse osteosarcoma cells, early-passage culture from an engineered mouse model of fibroblastic bone tumour
Reagent: siRNA pool against mouse genes, 40 nM
Timing: about 120 h (48 h before drug, then 72 h with drug)
Challenge: doxorubicin 100 nM for 72 h, roughly 30-40% inhibitory dose
Detection: 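Viability read as ATP luminescence after 72 h of 100 nM doxorubicin or none, duplicate wells averaged, scaled to non-targeting siRNA, then expressed as robust z-scores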
Reading the numbers: viability z-score with doxorubicin: higher = more viable cells under doxorubicin; viability z-score without drug: higher = more viable cells with knock-down alone
Call rule: 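a pool counts as active when its viability z-score with doxorubicin is -2 or below and its z-score without drug lies between -2 and 2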
This is one part, drawn at random, of about 17,000 deposited reagents. Over the whole deposit, 788 (4.7%) are marked active. 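Calls rest on z-score classes alone; an extra cut-off of viability at most 70% of control was not applied to them.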 Entries without a mark were called inactive. Not all columns of the deposit are shown. Reagent sequences are not shown.

With knock-down of Or56b1, the record shows combined z-score class no change with or without drug; viability z-score with doxorubicin -0.67; viability z-score without drug -1.85. After knock-down of Fmo9, the record shows combined z-score class no change with or without drug; viability z-score with doxorubicin -0.9; viability z-score without drug -0.67. Depletion of Bcl2l1 came out at: combined z-score class no change with or without drug; viability z-score with doxorubicin -1.12; viability z-score without drug -0.67. With knock-down of Gng3, the screen gave combined z-score class high cell count with and without drug; viability z-score with doxorubicin 2.02; viability z-score without drug 2.36. Chrnb3 scored combined z-score class no change with or without drug; viability z-score with doxorubicin -1.46; viability z-score without drug -0.17. Against Pdgfrl, the entry reads combined z-score class no change with or without drug; viability z-score with doxorubicin 0; viability z-score without drug -0.67.

With knock-down of Ep400 the results were combined z-score class no change with or without drug; viability z-score with doxorubicin -1.46; viability z-score without drug -1.18. Inppl1 gave combined z-score class no change with or without drug; viability z-score with doxorubicin 0.9; viability z-score without drug 1.18. Fan1 showed combined z-score class no change with or without drug; viability z-score with doxorubicin -0.67; viability z-score without drug -0.84. For Fus the deposit lists combined z-score class no change with or without drug; viability z-score with doxorubicin -0.11; viability z-score without drug 1.18.

2 consecutive entries already listed, quoted:
Or56b1: combined z-score class = no change with or without drug; viability z-score with doxorubicin = -0.67; viability z-score without drug = -1.85
Fmo9: combined z-score class = no change with or without drug; viability z-score with doxorubicin = -0.9; viability z-score without drug = -0.67

Further entries:
Grm5 gave combined z-score class no change with or without drug; viability z-score with doxorubicin 0.67; viability z-score without drug -0.84. Tafa4 showed combined z-score class no change with or without drug; viability z-score with doxorubicin -0.45; viability z-score without drug -0.67. Depletion of Ppy gave: combined z-score class no change with or without drug; viability z-score with doxorubicin 1.8; viability z-score without drug 0.34. For Mapk4, the entry reads combined z-score class no change with or without drug; viability z-score with doxorubicin 1.69; viability z-score without drug 0.67. Silencing of Robo2 resulted in: combined z-score class no change with or without drug; viability z-score with doxorubicin 0.45; viability z-score without drug -0.17. Vmn1r-ps8 showed combined z-score class no change with or without drug; viability z-score with doxorubicin 0.67; viability z-score without drug -0.51.

Silencing of Tppp3 resulted in: combined z-score class no change with or without drug; viability z-score with doxorubicin 1.35; viability z-score without drug 1.69. Against Mto1 the deposit lists combined z-score class no change with or without drug; viability z-score with doxorubicin -1.12; viability z-score without drug -0.84. Rtp3 showed combined z-score class high cell count without drug only; viability z-score with doxorubicin 0.79; viability z-score without drug 2.53.
